Literature values, collected in patent US20260000669A1, “TREATMENT REGIMEN FOR AUTOIMMUNE DISEASES AND INFLAMMATORY DISEASES” (Merck Patent GmbH, priority 2022, published 2026).
At least one structure is not confirmed: it was looked up by name or label, or the drawing left a doubt.

Legend:
hepatitis B = conditions: CLL patients on BTKi; cited from earlier work
shingles = conditions: CLL patients on BTKi; cited from earlier work

Compound: CC#CC(=O)N1CCC[C@H]1c1nc(-c2ccc(C(=O)Nc3ccccn3)cc2)c2c(N)nccn12 [acalabrutinib]
- de novo immune response to hepatitis B vaccine (hepatitis B): nearly absent
- rate of response to RZV versus patients not on BTK inhibitor (shingles): not significantly different
